Data taken from the supplement of paper PMC10849652.
The other results are listed elsewhere or left out.

The chains behind the UniProt entries cited, without tags or fusion partners. Where a name states a change or a piece, a line headed by the entry shows the natural chain unless it says otherwise.
UniProt P49407: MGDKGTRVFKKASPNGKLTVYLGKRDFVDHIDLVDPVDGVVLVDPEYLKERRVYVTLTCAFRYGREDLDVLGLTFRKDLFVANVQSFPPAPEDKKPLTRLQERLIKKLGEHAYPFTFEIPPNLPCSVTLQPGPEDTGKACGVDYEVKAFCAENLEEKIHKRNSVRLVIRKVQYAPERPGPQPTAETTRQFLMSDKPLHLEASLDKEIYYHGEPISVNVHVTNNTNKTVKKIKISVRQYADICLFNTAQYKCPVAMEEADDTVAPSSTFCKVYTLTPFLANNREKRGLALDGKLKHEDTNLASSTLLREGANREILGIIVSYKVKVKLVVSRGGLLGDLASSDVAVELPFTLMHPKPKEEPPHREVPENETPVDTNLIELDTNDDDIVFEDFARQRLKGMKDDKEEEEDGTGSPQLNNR
UniProt Q6UXV4: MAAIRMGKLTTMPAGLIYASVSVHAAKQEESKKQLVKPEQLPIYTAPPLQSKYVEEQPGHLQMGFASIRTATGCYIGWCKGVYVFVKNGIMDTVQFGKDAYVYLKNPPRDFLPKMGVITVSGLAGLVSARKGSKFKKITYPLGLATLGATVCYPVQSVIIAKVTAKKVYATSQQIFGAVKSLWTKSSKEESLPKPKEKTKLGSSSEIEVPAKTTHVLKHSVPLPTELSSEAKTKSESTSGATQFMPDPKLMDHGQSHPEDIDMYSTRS
UniProt Q92747, whole entry, looked up: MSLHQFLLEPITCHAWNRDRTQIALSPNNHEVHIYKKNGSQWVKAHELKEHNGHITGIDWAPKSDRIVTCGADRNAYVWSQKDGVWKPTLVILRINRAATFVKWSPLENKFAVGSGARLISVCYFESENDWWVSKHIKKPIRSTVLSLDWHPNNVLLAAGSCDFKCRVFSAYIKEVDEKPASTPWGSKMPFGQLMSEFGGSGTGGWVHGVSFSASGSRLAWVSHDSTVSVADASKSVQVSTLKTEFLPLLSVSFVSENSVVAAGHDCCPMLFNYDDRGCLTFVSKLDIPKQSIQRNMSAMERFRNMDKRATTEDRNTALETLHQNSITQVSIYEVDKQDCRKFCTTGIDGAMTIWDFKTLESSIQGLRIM
UniProt Q9BPX5, whole entry, looked up: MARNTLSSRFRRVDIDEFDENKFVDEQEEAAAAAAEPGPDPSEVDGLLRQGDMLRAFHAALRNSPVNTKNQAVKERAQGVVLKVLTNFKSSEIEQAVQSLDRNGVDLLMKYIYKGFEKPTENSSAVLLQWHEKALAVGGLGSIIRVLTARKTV
UniProt Q8N5I2: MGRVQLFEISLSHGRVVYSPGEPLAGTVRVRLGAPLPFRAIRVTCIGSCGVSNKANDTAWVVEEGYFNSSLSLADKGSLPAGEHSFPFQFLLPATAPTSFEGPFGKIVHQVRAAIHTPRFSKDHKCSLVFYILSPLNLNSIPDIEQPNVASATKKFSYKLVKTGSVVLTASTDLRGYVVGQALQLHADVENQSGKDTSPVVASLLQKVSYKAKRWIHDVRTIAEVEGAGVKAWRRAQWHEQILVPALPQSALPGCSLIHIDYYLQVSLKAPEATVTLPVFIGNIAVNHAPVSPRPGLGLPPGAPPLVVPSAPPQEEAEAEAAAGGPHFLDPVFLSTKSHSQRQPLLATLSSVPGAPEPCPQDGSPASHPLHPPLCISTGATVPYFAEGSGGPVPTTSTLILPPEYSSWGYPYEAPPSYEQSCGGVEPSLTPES
UniProt P02647, whole entry, looked up: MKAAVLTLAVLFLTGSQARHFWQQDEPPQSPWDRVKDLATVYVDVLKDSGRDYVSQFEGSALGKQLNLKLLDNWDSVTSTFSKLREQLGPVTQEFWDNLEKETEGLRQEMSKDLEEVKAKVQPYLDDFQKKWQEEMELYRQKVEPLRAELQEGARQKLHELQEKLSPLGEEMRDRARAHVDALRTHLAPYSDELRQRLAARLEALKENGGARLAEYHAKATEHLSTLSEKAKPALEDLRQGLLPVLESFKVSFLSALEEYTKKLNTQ
UniProt Q13510, whole entry, looked up: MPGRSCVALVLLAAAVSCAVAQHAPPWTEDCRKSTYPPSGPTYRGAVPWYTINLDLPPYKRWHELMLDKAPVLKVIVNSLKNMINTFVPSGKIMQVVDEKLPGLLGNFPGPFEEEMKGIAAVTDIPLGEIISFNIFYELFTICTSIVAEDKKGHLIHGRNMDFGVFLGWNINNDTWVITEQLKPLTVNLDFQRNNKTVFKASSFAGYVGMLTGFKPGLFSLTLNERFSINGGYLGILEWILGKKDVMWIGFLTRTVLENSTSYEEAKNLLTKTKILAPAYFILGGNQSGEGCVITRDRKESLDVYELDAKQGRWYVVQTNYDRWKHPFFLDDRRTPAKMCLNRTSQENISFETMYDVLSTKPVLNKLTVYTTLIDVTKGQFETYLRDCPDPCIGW
UniProt Q5T5U3: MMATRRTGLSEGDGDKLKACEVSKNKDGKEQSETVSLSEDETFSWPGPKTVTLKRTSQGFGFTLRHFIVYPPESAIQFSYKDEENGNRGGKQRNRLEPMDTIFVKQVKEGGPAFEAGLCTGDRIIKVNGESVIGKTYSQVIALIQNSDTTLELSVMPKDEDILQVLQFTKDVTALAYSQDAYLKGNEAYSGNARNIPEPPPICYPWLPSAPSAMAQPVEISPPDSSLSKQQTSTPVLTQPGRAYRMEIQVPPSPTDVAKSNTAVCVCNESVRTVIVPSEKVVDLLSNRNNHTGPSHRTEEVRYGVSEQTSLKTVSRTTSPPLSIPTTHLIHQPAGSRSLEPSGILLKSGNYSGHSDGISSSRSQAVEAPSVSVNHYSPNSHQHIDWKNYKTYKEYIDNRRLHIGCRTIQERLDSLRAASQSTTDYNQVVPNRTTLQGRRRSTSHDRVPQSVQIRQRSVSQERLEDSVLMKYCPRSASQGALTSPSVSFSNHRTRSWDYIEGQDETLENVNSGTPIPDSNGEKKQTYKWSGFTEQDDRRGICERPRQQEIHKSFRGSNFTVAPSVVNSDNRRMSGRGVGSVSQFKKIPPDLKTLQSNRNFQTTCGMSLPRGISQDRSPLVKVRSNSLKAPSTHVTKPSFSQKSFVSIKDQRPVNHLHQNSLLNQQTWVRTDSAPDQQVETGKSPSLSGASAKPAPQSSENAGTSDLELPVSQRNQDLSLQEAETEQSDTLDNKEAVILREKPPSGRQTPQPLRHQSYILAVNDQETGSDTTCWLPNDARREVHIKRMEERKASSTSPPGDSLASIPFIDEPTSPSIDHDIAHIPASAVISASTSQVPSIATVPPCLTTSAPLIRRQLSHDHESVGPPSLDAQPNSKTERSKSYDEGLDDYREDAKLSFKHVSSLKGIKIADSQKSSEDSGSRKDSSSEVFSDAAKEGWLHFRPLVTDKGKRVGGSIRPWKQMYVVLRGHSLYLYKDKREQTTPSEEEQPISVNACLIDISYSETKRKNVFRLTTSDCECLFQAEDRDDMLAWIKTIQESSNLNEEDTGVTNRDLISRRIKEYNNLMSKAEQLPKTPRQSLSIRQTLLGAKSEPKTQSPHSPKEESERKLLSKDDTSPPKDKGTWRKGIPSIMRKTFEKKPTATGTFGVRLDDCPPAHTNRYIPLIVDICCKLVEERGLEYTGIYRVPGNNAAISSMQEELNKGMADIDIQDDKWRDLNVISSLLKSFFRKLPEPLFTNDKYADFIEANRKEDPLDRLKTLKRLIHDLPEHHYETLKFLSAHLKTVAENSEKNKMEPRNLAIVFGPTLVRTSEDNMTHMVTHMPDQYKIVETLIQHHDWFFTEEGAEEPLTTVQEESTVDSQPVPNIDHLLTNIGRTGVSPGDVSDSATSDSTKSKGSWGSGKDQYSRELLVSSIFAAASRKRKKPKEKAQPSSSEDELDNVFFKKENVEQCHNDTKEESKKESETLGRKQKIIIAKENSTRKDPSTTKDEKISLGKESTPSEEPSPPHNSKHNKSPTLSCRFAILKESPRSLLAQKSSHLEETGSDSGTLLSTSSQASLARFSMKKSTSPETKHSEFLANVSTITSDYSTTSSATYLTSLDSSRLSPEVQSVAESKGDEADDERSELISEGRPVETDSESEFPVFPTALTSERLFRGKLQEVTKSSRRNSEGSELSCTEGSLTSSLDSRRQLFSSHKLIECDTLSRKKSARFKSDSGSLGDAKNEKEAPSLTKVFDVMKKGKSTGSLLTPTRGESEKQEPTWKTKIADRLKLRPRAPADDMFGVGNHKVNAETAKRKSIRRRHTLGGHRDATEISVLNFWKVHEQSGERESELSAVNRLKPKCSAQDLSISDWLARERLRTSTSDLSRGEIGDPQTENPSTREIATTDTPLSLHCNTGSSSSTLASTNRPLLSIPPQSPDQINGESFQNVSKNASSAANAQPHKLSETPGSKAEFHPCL
UniProt Q8IWW6: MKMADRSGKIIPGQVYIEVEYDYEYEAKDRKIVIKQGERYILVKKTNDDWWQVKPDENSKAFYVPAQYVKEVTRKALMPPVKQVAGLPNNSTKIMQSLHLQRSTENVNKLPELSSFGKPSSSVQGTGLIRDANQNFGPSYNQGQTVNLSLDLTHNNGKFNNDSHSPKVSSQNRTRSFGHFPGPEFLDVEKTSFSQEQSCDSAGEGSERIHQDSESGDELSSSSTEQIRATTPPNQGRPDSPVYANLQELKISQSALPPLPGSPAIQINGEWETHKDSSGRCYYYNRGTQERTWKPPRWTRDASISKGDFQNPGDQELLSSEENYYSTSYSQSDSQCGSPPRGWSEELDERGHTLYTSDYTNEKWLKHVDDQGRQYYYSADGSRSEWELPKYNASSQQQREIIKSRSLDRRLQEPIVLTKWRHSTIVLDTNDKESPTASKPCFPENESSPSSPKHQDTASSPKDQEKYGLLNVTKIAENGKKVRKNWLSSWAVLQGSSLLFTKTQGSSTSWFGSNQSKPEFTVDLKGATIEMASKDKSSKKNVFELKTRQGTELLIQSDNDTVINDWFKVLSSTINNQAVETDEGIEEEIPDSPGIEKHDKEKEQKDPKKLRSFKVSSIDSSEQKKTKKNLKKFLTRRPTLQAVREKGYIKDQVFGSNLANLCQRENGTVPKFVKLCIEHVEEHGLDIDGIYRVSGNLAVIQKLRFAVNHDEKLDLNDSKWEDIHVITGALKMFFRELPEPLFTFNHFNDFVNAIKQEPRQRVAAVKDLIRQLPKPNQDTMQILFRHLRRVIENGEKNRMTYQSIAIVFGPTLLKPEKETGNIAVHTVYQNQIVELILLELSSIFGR
UniProt O60306: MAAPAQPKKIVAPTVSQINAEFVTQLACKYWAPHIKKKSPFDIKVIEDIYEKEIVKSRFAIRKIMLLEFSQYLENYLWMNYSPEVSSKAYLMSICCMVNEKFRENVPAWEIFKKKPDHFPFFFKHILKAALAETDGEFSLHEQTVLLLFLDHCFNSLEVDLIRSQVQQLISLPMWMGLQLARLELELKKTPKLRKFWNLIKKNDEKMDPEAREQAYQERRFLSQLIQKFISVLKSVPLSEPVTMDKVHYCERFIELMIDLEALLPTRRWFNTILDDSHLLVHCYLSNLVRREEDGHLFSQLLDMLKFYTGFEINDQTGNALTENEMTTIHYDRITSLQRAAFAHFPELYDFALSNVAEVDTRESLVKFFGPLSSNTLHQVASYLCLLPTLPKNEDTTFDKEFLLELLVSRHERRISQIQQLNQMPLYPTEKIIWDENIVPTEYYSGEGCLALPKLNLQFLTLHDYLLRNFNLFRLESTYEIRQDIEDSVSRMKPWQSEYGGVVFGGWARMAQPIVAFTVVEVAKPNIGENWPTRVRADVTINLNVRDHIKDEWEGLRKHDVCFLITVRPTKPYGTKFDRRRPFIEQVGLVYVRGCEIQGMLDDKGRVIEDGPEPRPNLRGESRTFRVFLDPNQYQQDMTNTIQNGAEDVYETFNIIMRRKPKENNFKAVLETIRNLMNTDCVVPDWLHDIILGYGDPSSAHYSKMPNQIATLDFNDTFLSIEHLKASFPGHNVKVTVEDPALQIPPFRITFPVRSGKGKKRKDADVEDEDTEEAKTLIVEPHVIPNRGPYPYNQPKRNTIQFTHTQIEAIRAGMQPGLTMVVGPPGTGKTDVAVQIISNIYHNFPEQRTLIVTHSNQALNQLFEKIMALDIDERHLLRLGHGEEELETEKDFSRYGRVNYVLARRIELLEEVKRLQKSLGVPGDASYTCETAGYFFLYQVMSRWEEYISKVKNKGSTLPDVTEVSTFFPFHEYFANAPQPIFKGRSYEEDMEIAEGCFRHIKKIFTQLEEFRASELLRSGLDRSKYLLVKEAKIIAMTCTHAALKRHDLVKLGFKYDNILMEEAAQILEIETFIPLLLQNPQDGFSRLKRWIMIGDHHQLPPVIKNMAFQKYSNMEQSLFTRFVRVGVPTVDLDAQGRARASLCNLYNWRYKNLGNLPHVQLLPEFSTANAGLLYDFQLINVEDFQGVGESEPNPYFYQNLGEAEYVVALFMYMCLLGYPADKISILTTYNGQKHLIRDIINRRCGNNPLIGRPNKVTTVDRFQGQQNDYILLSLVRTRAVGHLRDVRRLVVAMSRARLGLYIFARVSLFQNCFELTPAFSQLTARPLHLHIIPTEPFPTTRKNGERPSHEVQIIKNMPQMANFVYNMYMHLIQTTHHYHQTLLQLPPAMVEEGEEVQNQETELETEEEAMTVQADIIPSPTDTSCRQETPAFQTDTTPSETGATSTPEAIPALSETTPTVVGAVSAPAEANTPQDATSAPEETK

Key:
Assay in all cases: log2 fold change, soluble protein after heating vs DMSO (PISA); higher = thermal stabilisation; K562 lysate, 10 uM; active = over 0.2 and 3.5 SD of the protein, either way, in both replicates (recomputed)
nilotinib = compound: Cc1cn(-c2cc(NC(=O)c3ccc(C)c(Nc4nccc(-c5cccnc5)n4)c3)cc(C(F)(F)F)c2)cn1 [nilotinib]
Summary of the method: (§1)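 Log-two fold change in thermal stability relative to solvent controls is reported from duplicates. For each sample, crude K562 extract from dounce-homogenised pellets in PBS pH 7.4 with 1 mM MgCl2, at 1 mg/mL protein, was treated with 10 μM compound for 30 min. Aliquots heated for 3 min across 48°C-58°C were pooled, brought to 0.5% NP-40 at 4°C and cleared at 21,000xg for 90 min. The supernatant was quantified by TMTpro 16plex LC-MS/MS with channel sums equalised.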

[1] = compound: Cc1nc(Nc2n[nH]c3c2CN(C(=O)N[C@H](CN(C)C)c2ccccc2)C3(C)C)c2sccc2n1
Summary of the method: as §1

dasatinib = compound: Cc1nc(Nc2ncc(C(=O)Nc3c(C)cccc3Cl)s2)cc(N2CCN(CCO)CC2)n1 [dasatinib]
Summary of the method: as §1

[2] = compound: Cc1ncc(-c2ccnc(Nc3ccc(S(C)(=O)=O)cc3)n2)n1C(C)C
Summary of the method: as §1

[3] = compound: Cn1cc(-c2ccc3c(c2)CCN3C(=O)Cc2cccc(C(F)(F)F)c2)c2c(N)ncnc21
Summary of the method: as §1

quisinostat = compound: Cn1cc(CNCC2CCN(c3ncc(C(=O)NO)cn3)CC2)c2ccccc21 [quisinostat]
Summary of the method: as §1

tipifarnib = compound: Cn1cncc1[C@@](N)(c1ccc(Cl)cc1)c1ccc2c(c1)c(-c1cccc(Cl)c1)cc(=O)n2C [tipifarnib]
Summary of the method: as §1

[4] = compound: NC(=O)Nc1cc(-c2cccc(F)c2)sc1C(=O)N[C@H]1CCCNC1
Summary of the method: as §1

[5] = compound: NC(=O)c1cnc(N[C@@H]2CCCC[C@@H]2N)nc1Nc1cccc(-n2nccn2)c1
Summary of the method: as §1

[6] = compound: NC1(c2ccc(-c3nc4ccn5c(=O)[nH]nc5c4cc3-c3ccccc3)cc2)CCC1
Summary of the method: as §1

Measured: log2 fold change

ARRB1 (UniProt P49407)
inactive: nilotinib -0.035 | [1] -0.025 | dasatinib 0.015 | [2] 0.051 | [3] -0.027 | quisinostat 0.01 | tipifarnib 0.055 | [4] -0.004 | [5] -0.012 | [6] 0.017

ARHGAP35 (UniProt Q9NRY4)
inactive: nilotinib 0.027 | [1] -0.002 | dasatinib -0.043 | [2] 0.007 | [3] -0.007 | quisinostat -0.046 | tipifarnib -0.045 | [4] 0.01 | [5] -0.019 | [6] -0.009

APOBEC3C (UniProt Q9NRW3)
inactive: nilotinib 0.082 | [1] -0.014 | dasatinib -0.005 | [2] 0 | [3] 0.042 | quisinostat -0.144 | tipifarnib -0.024 | [4] -0.067 | [5] -0.001 | [6] 0.028

ARCN1 (UniProt P48444)
inactive: nilotinib -0.008 | [1] -0.03 | dasatinib 0.006 | [2] -0.014 | [3] 0.01 | quisinostat 0.002 | tipifarnib 0.016 | [4] -0.008 | [5] 0.004 | [6] 0.001

APOOL (UniProt Q6UXV4)
inactive: nilotinib 0.007 | [1] -0.01 | dasatinib -0.014 | [2] 0.002 | [3] -0.03 | quisinostat -0.002 | tipifarnib 0.032 | [4] 0.004 | [5] -0.028 | [6] 0.009

ARPC1A (UniProt Q92747)
inactive: nilotinib -0.007 | [1] 0.037 | dasatinib 0.048 | [2] 0.049 | [3] 0.027 | quisinostat 0.023 | tipifarnib 0 | [4] 0.007 | [5] 0.001 | [6] -0.025

Copied from the listing (two entries):
APOOL (UniProt Q6UXV4)
inactive: nilotinib 0.007 | [1] -0.01 | dasatinib -0.014 | [2] 0.002 | [3] -0.03 | quisinostat -0.002 | tipifarnib 0.032 | [4] 0.004 | [5] -0.028 | [6] 0.009

ARPC1A (UniProt Q92747)
inactive: nilotinib -0.007 | [1] 0.037 | dasatinib 0.048 | [2] 0.049 | [3] 0.027 | quisinostat 0.023 | tipifarnib 0 | [4] 0.007 | [5] 0.001 | [6] -0.025

More records follow.

ARPC3 (UniProt O15145)
inactive: nilotinib 0.06 | [1] -0.046 | dasatinib 0.02 | [2] -0.046 | [3] 0.001 | quisinostat 0.078 | tipifarnib 0.054 | [4] 0.009 | [5] 0.002 | [6] 0.027

ARNT (UniProt P27540)
inactive: nilotinib -0.094 | [1] -0.04 | dasatinib -0.01 | [2] 0.008 | [3] 0.001 | quisinostat -0.052 | tipifarnib -0.07 | [4] 0.019 | [5] -0.028 | [6] 0.007

ARHGAP25 isoform 4 (UniProt P42331)
inactive: nilotinib -0.037 | [1] 0.039 | dasatinib -0.039 | [2] 0.022 | [3] 0.008 | quisinostat -0.115 | tipifarnib -0.016 | [4] 0.017 | [5] 0.028 | [6] -0.009

ARMC10 (UniProt Q8N2F6)
inactive: nilotinib 0.02 | [1] -0.084 | dasatinib -0.04 | [2] 0 | [3] -0.007 | quisinostat -0.012 | tipifarnib 0.079 | [4] 0.046 | [5] -0.025 | [6] -0.003

ARPC5L (UniProt Q9BPX5)
inactive: nilotinib -0.043 | [1] 0.018 | dasatinib -0.03 | [2] -0.006 | [3] -0.026 | quisinostat -0.041 | tipifarnib -0.057 | [4] -0.037 | [5] 0.009 | [6] -0.027

ARRDC1 (UniProt Q8N5I2)
inactive: nilotinib 0.251 | [1] -0.076 | dasatinib 0.012 | [2] 0.27 | [3] 0.039 | quisinostat 0.147 | tipifarnib -0.003 | [4] -0.032 | [5] -0.014 | [6] -0.112

ASAP3 (UniProt Q8TDY4)
inactive: nilotinib -0.171 | [1] -0.016 | dasatinib -0.095 | [2] 0.119 | [3] 0.037 | quisinostat -0.068 | tipifarnib 0.071 | [4] 0.095 | [5] -0.015 | [6] -0.024

APOA1 (UniProt P02647)
inactive: nilotinib 0.041 | [1] 0.052 | dasatinib -0.021 | [2] 0.091 | [3] -0.06 | quisinostat -0.084 | tipifarnib -0.125 | [4] 0.021 | [5] 0.026 | [6] 0.051

ARHGEF1 (UniProt M0QZR4)
inactive: nilotinib 0.009 | [1] -0.031 | dasatinib -0.058 | [2] -0.016 | [3] 0.022 | quisinostat -0.02 | tipifarnib 0.01 | [4] 0.015 | [5] 0.017 | [6] -0.015

ASAH1 isoform 2 (UniProt Q13510)
inactive: nilotinib 0.041 | [1] 0.061 | dasatinib 0.017 | [2] -0.068 | [3] 0.009 | quisinostat -0.109 | tipifarnib -0.021 | [4] 0.019 | [5] -0.071 | [6] 0.032

APOL2 (UniProt J3KQL8)
inactive: nilotinib 0.034 | [1] -0.07 | dasatinib 0.036 | [2] 0.128 | [3] -0.021 | quisinostat 0.156 | tipifarnib -0.124 | [4] 0.012 | [5] 0.048 | [6] 0.028

APOO (UniProt Q9BUR5)
inactive: nilotinib -0.028 | [1] 0.01 | dasatinib -0.005 | [2] 0.01 | [3] 0.039 | quisinostat 0.11 | tipifarnib -0.064 | [4] -0.03 | [5] 0.022 | [6] 0.05

ARHGAP18 (UniProt Q8N392)
inactive: nilotinib 0.019 | [1] -0.025 | dasatinib -0.047 | [2] 0.024 | [3] -0.02 | quisinostat -0.036 | tipifarnib 0.01 | [4] 0.011 | [5] 0.016 | [6] 0.021

ARFGAP2 (UniProt Q8N6H7)
inactive: nilotinib -0.005 | [1] 0.009 | dasatinib 0.013 | [2] -0.044 | [3] 0.012 | quisinostat -0.033 | tipifarnib -0.062 | [4] -0.024 | [5] -0.023 | [6] 0.02

ARHGAP21 (UniProt Q5T5U3)
inactive: nilotinib -0.017 | [1] -0.014 | dasatinib -0.039 | [2] -0.036 | [3] 0.017 | quisinostat -0.06 | tipifarnib 0.019 | [4] 0.053 | [5] 0.002 | [6] -0.021

ARHGAP1 (UniProt Q07960)
inactive: nilotinib 0.007 | [1] 0.012 | dasatinib 0.049 | [2] -0.029 | [3] 0.014 | quisinostat 0.069 | tipifarnib 0.038 | [4] -0.008 | [5] -0.026 | [6] 0.006

ARHGAP12 (UniProt Q8IWW6)
inactive: nilotinib -0.055 | [1] -0.091 | dasatinib 0.072 | [2] 0.013 | [3] -0.035 | quisinostat -0.064 | tipifarnib -0.018 | [4] 0.034 | [5] 0.049 | [6] -0.174

APOE (UniProt P02649)
inactive: nilotinib 0 | [1] 0.004 | dasatinib 0.022 | [2] 0.057 | [3] 0.009 | quisinostat -0.017 | tipifarnib -0.02 | [4] 0.077 | [5] 0.017 | [6] -0.009

APEH (UniProt P13798)
inactive: nilotinib 0.015 | [1] -0.007 | dasatinib -0.003 | [2] -0.006 | [3] 0.014 | quisinostat 0.021 | tipifarnib 0.008 | [4] -0.032 | [5] -0.004 | [6] 0.013

ARFRP1 (UniProt Q13795)
inactive: nilotinib 0.036 | [1] 0.014 | dasatinib -0.037 | [2] -0.042 | [3] 0.016 | quisinostat -0.022 | tipifarnib -0.1 | [4] 0.039 | [5] -0.022 | [6] -0.072

AQR (UniProt O60306)
inactive: nilotinib -0.049 | [1] 0.015 | dasatinib -0.005 | [2] 0.031 | [3] 0.014 | quisinostat -0.062 | tipifarnib -0.018 | [4] 0.02 | [5] 0.001 | [6] -0.039

ARHGDIA (UniProt P52565)
inactive: nilotinib -0.018 | [1] -0.031 | dasatinib 0.006 | [2] -0.02 | [3] -0.007 | quisinostat -0.022 | tipifarnib 0.013 | [4] -0.006 | [5] -0.001 | [6] -0.023

ARF3 (UniProt P61204)
inactive: nilotinib -0.006 | [1] -0.006 | dasatinib 0.063 | [2] -0.022 | [3] -0.029 | quisinostat -0.024 | tipifarnib -0.038 | [4] -0.003 | [5] 0.007 | [6] 0.009

ARPC2 (UniProt O15144)
inactive: nilotinib -0.031 | [1] 0.013 | dasatinib 0.019 | [2] -0.02 | [3] 0.006 | quisinostat -0.036 | tipifarnib 0.007 | [4] -0.002 | [5] -0.014 | [6] -0.015
